Data reported in paper PMC11858170.
No constants are given. Whether binding was seen depends on the method and setting. In cells and extracts the contact can be indirect. Some results given as binding are weak or reduced against the parent protein; the word gives no strength.

Amino acid sequences for entries named in this document (tags omitted).
UniProt P52332: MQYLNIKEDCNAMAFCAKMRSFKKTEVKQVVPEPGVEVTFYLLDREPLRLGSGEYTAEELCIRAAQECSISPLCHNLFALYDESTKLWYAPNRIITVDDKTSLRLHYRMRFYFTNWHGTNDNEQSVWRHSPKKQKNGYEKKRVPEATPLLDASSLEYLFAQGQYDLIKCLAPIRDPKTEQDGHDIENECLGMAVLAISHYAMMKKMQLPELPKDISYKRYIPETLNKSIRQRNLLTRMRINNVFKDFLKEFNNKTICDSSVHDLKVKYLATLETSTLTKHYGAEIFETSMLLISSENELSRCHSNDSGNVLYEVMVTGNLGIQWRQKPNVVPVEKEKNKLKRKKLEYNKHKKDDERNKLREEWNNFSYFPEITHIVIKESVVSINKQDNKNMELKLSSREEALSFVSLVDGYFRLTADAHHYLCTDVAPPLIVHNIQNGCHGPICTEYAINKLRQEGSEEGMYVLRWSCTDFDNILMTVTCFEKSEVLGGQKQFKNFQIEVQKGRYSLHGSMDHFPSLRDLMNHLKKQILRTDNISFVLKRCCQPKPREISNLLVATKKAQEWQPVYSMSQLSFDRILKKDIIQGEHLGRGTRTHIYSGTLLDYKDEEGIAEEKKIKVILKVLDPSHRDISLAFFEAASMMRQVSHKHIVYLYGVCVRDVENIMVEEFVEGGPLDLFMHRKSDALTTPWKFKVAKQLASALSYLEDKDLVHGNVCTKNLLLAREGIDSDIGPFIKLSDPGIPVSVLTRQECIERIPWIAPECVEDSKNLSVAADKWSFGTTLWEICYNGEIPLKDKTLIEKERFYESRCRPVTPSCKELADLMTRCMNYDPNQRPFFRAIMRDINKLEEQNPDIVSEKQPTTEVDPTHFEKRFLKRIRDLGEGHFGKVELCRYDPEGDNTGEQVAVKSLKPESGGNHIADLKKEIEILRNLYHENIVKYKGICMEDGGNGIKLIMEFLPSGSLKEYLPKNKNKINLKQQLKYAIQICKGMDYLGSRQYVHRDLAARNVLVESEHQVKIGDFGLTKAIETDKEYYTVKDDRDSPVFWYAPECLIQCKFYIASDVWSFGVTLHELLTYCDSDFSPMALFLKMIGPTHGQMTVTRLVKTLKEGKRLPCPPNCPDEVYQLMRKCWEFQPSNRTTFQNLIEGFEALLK
UniProt P25911: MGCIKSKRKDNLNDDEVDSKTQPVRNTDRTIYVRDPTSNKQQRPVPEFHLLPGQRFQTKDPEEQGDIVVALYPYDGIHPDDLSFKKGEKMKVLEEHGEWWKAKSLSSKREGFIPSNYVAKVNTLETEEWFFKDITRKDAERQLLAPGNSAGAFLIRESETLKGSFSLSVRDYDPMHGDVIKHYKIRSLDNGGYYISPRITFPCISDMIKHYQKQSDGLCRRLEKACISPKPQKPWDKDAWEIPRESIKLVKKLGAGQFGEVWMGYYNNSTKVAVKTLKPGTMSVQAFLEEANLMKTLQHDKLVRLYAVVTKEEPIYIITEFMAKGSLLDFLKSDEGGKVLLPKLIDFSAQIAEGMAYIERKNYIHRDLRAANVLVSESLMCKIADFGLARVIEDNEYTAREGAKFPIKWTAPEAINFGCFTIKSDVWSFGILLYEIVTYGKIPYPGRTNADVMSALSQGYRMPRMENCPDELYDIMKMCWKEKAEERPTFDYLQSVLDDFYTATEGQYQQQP

Legend:
[1] = target: T1, interleukin-4 receptor (IL-4 receptor α), mouse (mouse (endogenous in BALB/C tissue)) (UniProt P16382); experiment: co-IP; ear tissue lysates (RIPA buffer) of BALB/C mice in passive cutaneous anaphylaxis (DNP-specific IgE, DNP-HSA), without or with Roc-A or chemical 1536801; immunoprecipitation and immunoblot; which protein was precipitated is not told
T1 sequence: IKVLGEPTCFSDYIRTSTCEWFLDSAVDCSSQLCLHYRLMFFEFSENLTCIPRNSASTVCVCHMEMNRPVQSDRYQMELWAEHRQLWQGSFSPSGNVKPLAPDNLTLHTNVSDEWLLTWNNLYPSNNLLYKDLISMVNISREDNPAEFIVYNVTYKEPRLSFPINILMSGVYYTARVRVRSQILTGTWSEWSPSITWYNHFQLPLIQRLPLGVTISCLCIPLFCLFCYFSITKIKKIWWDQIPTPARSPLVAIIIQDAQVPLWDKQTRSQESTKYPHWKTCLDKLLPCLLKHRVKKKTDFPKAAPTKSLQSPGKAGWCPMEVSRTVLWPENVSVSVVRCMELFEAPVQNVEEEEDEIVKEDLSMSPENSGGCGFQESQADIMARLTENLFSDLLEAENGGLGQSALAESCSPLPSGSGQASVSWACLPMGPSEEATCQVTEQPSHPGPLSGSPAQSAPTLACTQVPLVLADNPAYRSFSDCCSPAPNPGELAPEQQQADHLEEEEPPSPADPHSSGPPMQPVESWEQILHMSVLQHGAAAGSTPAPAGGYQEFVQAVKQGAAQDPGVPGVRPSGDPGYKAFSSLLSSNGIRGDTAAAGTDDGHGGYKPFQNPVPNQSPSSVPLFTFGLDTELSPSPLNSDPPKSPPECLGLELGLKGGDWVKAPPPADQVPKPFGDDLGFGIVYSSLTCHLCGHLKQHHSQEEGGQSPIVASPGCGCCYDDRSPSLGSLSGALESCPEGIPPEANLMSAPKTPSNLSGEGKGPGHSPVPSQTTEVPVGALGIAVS

[2] = target: T2, FcεRI (detected with an antibody to FcεRIβ), mouse (mouse (endogenous in BALB/C tissue)) (UniProt P20490); experiment: as above
T2 sequence: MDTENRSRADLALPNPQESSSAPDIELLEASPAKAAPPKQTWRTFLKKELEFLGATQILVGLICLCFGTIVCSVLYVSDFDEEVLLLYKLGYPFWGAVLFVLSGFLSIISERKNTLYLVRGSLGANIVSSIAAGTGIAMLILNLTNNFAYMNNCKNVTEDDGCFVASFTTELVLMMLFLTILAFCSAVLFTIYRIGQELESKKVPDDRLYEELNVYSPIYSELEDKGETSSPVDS

[3] = target: T2, FcεRI (detected with an antibody to FcεRIβ), mouse (mouse (endogenous in BALB/C tissue)); experiment: co-IP; lung tissue lysates (RIPA buffer) of BALB/C mice in passive systemic anaphylaxis (DNP-specific IgE, DNP-HSA), without or with Roc-A; immunoprecipitation and immunoblot; which protein was precipitated is not told

binding [1] | binding [2] | binding [3] | Substance
binds | – | – | Janus kinase 1 (JAK1), mouse (from UniProt P52332 1-1153) (enzyme)
– | binds | binds | LYN, mouse (from UniProt P25911 1-512) (enzyme)
